Test results as given in the supplement of paper PMC10849652.
The list shows a part of the results.

Amino acid sequences for entries named in this document (tags omitted). A change or cut given only in a name is not applied to a line headed by its entry.
UniProt P08758: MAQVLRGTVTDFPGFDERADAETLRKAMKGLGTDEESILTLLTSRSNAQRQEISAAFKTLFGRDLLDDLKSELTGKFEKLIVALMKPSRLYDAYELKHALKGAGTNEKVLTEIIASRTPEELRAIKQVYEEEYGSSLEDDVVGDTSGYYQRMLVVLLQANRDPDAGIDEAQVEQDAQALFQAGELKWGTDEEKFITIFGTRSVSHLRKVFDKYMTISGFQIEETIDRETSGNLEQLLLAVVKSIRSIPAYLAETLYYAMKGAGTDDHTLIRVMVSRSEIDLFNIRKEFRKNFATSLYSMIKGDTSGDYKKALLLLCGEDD
UniProt P58335, whole entry, looked up: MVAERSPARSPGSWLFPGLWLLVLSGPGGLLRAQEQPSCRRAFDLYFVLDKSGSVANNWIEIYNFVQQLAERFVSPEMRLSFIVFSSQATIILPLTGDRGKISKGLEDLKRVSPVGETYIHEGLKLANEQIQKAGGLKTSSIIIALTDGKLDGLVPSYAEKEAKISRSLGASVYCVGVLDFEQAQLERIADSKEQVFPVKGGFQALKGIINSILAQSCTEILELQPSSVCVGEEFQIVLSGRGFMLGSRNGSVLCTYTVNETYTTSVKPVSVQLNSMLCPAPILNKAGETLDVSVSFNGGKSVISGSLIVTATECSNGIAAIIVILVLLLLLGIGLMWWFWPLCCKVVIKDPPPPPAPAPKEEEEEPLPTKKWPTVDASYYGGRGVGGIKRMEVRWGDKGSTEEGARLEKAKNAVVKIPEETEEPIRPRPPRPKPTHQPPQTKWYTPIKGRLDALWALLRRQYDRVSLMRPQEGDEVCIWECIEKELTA
UniProt P02647, whole entry, looked up: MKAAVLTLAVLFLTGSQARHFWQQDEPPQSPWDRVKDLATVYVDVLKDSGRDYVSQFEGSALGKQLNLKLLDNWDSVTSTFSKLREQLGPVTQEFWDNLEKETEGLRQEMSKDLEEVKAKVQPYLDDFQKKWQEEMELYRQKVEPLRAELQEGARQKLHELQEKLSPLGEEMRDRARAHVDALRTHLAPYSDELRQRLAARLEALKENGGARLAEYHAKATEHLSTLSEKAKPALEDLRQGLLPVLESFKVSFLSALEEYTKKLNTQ
UniProt P84085: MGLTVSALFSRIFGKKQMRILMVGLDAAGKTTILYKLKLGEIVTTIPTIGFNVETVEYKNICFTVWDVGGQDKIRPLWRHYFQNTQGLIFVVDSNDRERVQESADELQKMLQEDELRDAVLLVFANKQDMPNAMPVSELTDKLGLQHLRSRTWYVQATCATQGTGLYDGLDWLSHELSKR
UniProt Q9BTT0: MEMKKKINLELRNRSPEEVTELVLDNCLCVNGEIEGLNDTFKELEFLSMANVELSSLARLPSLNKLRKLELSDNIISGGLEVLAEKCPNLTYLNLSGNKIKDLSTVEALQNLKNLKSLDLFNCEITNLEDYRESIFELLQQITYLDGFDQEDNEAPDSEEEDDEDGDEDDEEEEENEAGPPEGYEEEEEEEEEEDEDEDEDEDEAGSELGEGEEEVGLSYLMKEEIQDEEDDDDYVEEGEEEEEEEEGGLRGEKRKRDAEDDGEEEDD
UniProt Q9BUR5: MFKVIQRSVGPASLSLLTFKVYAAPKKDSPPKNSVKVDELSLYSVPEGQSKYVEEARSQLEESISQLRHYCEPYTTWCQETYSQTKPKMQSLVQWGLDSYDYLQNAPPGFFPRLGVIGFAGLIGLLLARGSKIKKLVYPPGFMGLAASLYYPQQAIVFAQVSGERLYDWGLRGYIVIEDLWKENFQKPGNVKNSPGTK
UniProt Q9H0R1: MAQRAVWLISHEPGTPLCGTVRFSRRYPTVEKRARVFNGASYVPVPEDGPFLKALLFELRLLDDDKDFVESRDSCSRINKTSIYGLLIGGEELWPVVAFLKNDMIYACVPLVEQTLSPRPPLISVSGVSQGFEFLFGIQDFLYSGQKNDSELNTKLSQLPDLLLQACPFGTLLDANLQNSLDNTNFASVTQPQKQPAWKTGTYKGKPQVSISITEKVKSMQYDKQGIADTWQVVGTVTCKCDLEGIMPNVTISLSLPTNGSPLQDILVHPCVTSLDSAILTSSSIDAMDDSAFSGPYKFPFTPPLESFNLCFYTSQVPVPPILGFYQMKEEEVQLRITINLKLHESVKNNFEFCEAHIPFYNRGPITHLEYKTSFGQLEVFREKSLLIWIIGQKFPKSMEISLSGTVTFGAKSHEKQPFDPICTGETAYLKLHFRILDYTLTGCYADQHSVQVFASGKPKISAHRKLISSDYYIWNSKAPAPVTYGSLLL
UniProt P62330: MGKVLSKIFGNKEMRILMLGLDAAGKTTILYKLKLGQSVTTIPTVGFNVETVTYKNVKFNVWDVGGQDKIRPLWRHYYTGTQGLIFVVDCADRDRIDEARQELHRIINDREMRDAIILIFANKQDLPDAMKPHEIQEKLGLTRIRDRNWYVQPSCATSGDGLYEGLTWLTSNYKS
UniProt O75179: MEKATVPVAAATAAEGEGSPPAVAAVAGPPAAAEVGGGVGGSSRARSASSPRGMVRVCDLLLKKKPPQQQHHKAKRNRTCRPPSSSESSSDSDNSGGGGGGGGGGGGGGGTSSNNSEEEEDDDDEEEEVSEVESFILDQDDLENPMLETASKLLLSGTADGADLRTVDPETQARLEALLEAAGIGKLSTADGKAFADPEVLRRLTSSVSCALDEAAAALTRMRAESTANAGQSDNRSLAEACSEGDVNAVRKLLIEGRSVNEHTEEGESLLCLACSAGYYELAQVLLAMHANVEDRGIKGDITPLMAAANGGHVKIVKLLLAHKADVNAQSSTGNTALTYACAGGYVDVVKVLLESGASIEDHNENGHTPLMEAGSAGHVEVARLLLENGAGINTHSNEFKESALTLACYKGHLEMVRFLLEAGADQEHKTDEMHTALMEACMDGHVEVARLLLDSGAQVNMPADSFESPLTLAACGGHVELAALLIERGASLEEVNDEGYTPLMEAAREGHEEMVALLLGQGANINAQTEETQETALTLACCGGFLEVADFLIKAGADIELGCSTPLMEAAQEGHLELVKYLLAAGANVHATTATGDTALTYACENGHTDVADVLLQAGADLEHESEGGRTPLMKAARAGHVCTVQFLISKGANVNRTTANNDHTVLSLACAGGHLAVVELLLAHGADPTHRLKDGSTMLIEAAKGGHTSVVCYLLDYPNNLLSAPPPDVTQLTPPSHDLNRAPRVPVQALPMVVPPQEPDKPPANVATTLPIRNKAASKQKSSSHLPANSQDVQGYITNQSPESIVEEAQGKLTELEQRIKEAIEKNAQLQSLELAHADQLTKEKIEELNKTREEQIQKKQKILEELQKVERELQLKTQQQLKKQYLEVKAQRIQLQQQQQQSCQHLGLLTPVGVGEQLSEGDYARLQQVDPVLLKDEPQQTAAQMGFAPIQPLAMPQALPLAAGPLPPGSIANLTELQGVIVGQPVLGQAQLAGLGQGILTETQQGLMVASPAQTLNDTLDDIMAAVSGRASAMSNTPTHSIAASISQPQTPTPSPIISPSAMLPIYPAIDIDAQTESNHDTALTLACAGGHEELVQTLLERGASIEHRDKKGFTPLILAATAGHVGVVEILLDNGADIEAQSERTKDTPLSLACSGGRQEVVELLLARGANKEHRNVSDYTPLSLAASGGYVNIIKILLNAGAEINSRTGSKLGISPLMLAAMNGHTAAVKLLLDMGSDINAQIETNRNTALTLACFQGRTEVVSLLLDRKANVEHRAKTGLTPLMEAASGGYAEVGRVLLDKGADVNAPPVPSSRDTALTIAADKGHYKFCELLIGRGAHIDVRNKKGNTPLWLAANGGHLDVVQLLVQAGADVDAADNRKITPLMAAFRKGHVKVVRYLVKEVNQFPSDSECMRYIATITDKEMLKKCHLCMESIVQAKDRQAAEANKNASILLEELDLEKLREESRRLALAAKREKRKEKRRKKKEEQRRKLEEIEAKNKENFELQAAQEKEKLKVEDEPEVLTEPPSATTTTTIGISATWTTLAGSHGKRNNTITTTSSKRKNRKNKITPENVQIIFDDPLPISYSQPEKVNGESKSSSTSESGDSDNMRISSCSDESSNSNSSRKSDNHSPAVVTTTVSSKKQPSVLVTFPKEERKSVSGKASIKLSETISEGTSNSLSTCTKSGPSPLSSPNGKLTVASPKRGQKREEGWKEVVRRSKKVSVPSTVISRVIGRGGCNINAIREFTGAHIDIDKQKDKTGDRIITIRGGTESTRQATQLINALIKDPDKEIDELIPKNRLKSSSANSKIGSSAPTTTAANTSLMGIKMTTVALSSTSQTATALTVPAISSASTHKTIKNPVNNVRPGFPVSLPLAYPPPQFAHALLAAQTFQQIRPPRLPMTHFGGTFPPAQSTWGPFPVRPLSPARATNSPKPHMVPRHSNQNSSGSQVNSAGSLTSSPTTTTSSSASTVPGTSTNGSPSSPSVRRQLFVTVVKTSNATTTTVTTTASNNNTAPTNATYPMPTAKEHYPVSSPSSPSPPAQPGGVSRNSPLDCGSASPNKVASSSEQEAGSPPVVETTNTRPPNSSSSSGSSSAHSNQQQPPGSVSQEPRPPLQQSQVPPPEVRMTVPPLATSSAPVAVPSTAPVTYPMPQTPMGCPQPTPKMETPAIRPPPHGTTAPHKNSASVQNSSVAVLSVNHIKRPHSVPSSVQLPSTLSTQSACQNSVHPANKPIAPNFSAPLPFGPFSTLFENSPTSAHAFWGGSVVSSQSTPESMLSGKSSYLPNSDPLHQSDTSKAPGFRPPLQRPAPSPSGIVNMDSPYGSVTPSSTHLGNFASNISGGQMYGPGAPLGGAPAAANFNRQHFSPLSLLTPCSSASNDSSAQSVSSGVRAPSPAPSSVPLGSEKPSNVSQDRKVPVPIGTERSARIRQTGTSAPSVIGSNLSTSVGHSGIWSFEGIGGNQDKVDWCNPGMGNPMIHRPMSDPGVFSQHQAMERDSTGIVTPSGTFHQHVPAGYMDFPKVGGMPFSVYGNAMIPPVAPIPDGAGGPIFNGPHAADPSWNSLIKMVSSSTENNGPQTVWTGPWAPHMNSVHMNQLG
UniProt Q96GX9: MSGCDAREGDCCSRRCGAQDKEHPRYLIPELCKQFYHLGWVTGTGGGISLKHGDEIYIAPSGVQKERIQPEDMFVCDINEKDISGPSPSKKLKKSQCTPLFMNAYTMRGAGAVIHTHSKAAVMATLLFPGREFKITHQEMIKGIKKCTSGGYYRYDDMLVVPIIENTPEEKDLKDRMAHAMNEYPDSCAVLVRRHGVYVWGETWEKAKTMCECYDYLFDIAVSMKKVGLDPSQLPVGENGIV
UniProt Q9P2R3: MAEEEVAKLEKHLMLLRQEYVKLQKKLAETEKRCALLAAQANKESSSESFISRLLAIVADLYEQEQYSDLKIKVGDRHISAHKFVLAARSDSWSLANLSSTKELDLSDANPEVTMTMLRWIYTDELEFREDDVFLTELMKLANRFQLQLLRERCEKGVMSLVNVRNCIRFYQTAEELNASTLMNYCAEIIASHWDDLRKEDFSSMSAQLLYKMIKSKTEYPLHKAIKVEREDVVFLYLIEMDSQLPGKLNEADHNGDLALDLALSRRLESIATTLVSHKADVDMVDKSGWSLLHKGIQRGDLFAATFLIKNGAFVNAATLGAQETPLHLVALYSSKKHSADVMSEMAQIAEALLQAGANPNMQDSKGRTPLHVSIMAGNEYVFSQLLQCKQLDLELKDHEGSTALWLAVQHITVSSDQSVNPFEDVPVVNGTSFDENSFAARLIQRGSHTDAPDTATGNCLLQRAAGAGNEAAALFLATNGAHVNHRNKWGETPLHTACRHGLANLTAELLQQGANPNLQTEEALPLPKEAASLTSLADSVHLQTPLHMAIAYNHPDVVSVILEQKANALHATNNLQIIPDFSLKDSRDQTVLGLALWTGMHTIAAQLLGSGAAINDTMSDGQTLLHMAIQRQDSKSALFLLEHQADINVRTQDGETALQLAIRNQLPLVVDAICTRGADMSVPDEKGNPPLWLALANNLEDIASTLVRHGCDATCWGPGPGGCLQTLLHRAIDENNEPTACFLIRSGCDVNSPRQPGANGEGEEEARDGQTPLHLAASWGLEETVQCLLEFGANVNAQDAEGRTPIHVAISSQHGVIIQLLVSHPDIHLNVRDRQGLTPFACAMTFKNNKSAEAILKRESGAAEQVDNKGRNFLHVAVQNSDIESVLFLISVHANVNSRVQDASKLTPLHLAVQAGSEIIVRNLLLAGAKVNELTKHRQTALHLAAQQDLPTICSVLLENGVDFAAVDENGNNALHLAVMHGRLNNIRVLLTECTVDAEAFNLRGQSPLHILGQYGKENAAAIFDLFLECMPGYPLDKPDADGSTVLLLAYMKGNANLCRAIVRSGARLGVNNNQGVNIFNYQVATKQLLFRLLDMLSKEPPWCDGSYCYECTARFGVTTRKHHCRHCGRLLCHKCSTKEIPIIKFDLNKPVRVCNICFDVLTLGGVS

Assays:
Experiment in all cases: log2 fold change, soluble protein after heating vs DMSO (PISA); higher = thermal stabilisation; K562 cells, 10 uM, 30 min; active = over 0.2 and 3.5 SD of the protein, either way, in both replicates (recomputed)
[1] = compound: CC[C@@H]1C(=O)N(C)c2cnc(Nc3ccc(C(=O)NC4CCN(C)CC4)cc3OC)nc2N1C1CCCC1
How it was run: (§1)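 Soluble protein was defined as the supernatant after 21,000xg for 90 min. It came from K562 cells at 2×10^6 cells/mL given 10 μM compound for 30 min, heated in aliquots for 3 min across 48°C-58°C, pooled, and extracted in PBS with 0.5% NP-40 at 4°C, and was quantified by TMTpro 16plex LC-MS/MS with equalised channel sums. Thermal stability against control samples, from duplicates, is reported as log2 fold change.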

volasertib = compound: CC[C@@H]1C(=O)N(C)c2cnc(Nc3ccc(C(=O)N[C@H]4CC[C@H](N5CCN(CC6CC6)CC5)CC4)cc3OC)nc2N1C(C)C [volasertib]
How it was run: as §1

[2] = compound: CC[C@H](C)N1C=C(C2=C(C=C(C=C21)C3=CN=C(C=C3)N4CCNCC4)C(=O)NCC5=C(C=C(NC5=O)C)C)C
How it was run: as §1

epoxomicin = compound: CC[C@H](C)[C@@H](C(=O)N[C@@H]([C@@H](C)O)C(=O)N[C@@H](CC(C)C)C(=O)[C@]1(CO1)C)NC(=O)[C@H]([C@@H](C)CC)N(C)C(=O)C [epoxomicin]
How it was run: as §1

[3] = compound: CCn1cc(-c2ccnc3[nH]c(-c4cccc(CN(C)C)c4)cc23)c(-c2ccc(NC(=O)N(C)C)cc2)n1
How it was run: as §1

[4] = compound: CN(C)CC(=O)Nc1ccc2[nH]c(=O)c3ccccc3c2c1
How it was run: as §1

[5] = compound: CN1C2=C(C3=C1C(=O)N(N=C3)CC4=CC(=CC=C4)N)SC(=C2)S(=O)C
How it was run: as §1

[6] = compound: CN1CCC(CNc2ccc3ncc(-c4cccc(OC(F)(F)F)c4)n3n2)CC1
How it was run: as §1

[7] = compound: CCn1c(C(=O)N(C2CC2)C2CC2)cc2c3c(ncn3C)c(Nc3cc(C)n(C)n3)nc21
How it was run: as §1

rosiglitazone = compound: CN(CCOC1=CC=C(C=C1)C[C@H]2C(=O)NC(=O)S2)C3=CC=CC=N3 (racemic) [rosiglitazone]
How it was run: as §1

Target	log2 fold change [1]	log2 fold change (volasertib)	log2 fold change [2]	log2 fold change (epoxomicin)	log2 fold change [3]	log2 fold change [4]	log2 fold change [5]	log2 fold change [6]	log2 fold change [7]	log2 fold change (rosiglitazone)
ANXA5 (UniProt P08758)	inactive: -0.084	active: -0.214	inactive: 0.04	inactive: 0.068	inactive: -0.041	inactive: 0.012	inactive: -0.04	inactive: -0.042	–	–
ANTXR2 isoform 4 (UniProt P58335)	inactive: -0.052	inactive: -0.045	inactive: -0.006	inactive: 0.004	inactive: -0.034	inactive: -0.028	inactive: -0.024	inactive: 0.006	inactive: 0.02	inactive: -0.016
APOA1 (UniProt P02647)	inactive: 0.124	inactive: 0.083	inactive: -0.044	inactive: -0.425	inactive: -0.067	inactive: -0.008	inactive: 0.094	inactive: -0.03	inactive: 0.048	inactive: 0.154
ARF5 (UniProt P84085)	inactive: 0.008	inactive: 0.043	inactive: -0.027	inactive: -0.044	inactive: -0.01	inactive: 0.011	inactive: -0.073	inactive: 0.039	inactive: 0.009	inactive: 0.018
ANAPC4 isoform 3 (UniProt Q9UJX5)	inactive: -0.011	inactive: -0.122	inactive: 0.027	inactive: 0.001	inactive: 0.04	inactive: 0.006	inactive: -0.023	inactive: 0.006	inactive: 0.001	inactive: -0.01
ANP32E (UniProt Q9BTT0)	inactive: -0.132	active: -0.499	inactive: 0.04	inactive: 0.054	inactive: -0.128	inactive: -0.051	inactive: -0.058	inactive: -0.147	–	–
APOO (UniProt Q9BUR5)	inactive: -0.022	inactive: 0.042	inactive: -0.021	inactive: 0.032	inactive: 0.073	inactive: -0.014	inactive: 0.033	inactive: -0.107	inactive: 0.007	inactive: 0.021
AP5M1 (UniProt Q9H0R1)	inactive: -0.008	inactive: -0.121	inactive: -0.02	inactive: 0.047	inactive: 0.038	inactive: 0.078	inactive: 0.156	inactive: -0.043	–	inactive: -0.064
ARF6 (UniProt P62330)	inactive: 0.06	inactive: -0.071	inactive: -0.059	inactive: -0.007	inactive: -0.109	inactive: -0.052	inactive: -0.124	inactive: 0.057	inactive: -0.008	inactive: 0.061
ANKRD17 (UniProt O75179)	inactive: 0.069	inactive: -0.098	inactive: -0.017	inactive: -0.024	inactive: 0.044	inactive: -0.128	inactive: 0.093	inactive: -0.07	inactive: -0.081	inactive: 0.025
APIP (UniProt Q96GX9)	inactive: 0.051	inactive: 0.065	inactive: -0.04	inactive: -0.036	inactive: 0.007	inactive: 0.001	inactive: -0.077	inactive: 0.029	inactive: 0	inactive: 0.064
ANAPC16 (UniProt Q96DE5)	inactive: 0.02	inactive: 0.024	inactive: 0.011	inactive: 0.13	inactive: 0.042	inactive: -0.042	inactive: -0.06	inactive: -0.058	inactive: 0.03	inactive: -0.022
ANKFY1 isoform 4 (UniProt Q9P2R3)	inactive: 0.084	inactive: -0.391	inactive: 0.121	inactive: -0.06	inactive: -0.246	inactive: -0.004	–	inactive: 0.08	inactive: -0.351	inactive: 0.023
AP3B1 (UniProt O00203)	inactive: -0.048	inactive: -0.154	inactive: 0.088	inactive: -0.006	inactive: -0.026	inactive: 0.027	inactive: 0.019	inactive: -0.086	inactive: -0.041	inactive: 0.035

Reprinted at random: 2 records from the list.
Target	log2 fold change [1]	log2 fold change (volasertib)	log2 fold change [2]	log2 fold change (epoxomicin)	log2 fold change [3]	log2 fold change [4]	log2 fold change [5]	log2 fold change [6]	log2 fold change [7]	log2 fold change (rosiglitazone)
ARF5 (UniProt P84085)	inactive: 0.008	inactive: 0.043	inactive: -0.027	inactive: -0.044	inactive: -0.01	inactive: 0.011	inactive: -0.073	inactive: 0.039	inactive: 0.009	inactive: 0.018
APIP (UniProt Q96GX9)	inactive: 0.051	inactive: 0.065	inactive: -0.04	inactive: -0.036	inactive: 0.007	inactive: 0.001	inactive: -0.077	inactive: 0.029	inactive: 0	inactive: 0.064
